Experimental data published in US20100160234A1.
Results are given in words; binding and its absence hold for the method and conditions named. Some binding calls cover weakened binding; strength is not graded here. For part of these data: Sequences can lack the tags named with a protein.

Amino acid sequences for entries named in this document (tags omitted).
UniProt P06730: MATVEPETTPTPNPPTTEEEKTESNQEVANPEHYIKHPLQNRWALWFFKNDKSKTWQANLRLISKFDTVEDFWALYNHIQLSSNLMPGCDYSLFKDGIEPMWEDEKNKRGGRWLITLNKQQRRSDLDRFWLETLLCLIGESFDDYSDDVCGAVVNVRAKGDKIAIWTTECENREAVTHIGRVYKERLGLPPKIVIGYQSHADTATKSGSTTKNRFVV

How the values were obtained:
[1] = molecular target: Human eIF4E (immobilised in ELISA wells) (human) (UniProt P06730); experiment: ELISA, human eIF4E coated on the plate, GST-fusion peptide detected with anti-GST HRP antibody
[2] = molecular target: Human eIF4E (immobilised in ELISA wells) (human) (UniProt P06730); experiment: ELISA, human eIF4E coated on the plate, GST-fusion protein detected with anti-GST HRP antibody

Question: How did the binding [1] turn out when “GST-fusion of VPg4 (SEQ ID NO: 16) (from UniProt P18247 1884-1925)” was run?
Answer: binds

Question: For “GST-fusion of VPg2 (SEQ ID NO: 14) (from UniProt P18247 1884-1937)”, which binding [1] is on record?
Answer: binds

B1: GST-fusion of PVY VPg protein (SEQ ID NO: 2) (protein, not shown: a dimerising Fc or GST)
chain: GKNKSKRIQALKFRHARDKRAGFEIDNNDDTIEEFFGSAYRKKGKGKGTTVGMGKSSRRFINMYGFDPTEYSFIQFVDPLTGAQIEENVYADIRDIQERFSEVRKKMVENDDIEMQALGSNTTIHAYFRKDWSDKALKIDLMPHNPLKVCDKTNGIAKFPERELELRQTGPAVEVDVKDIPAQEVEHE
Question: Which binding [2] does the source give for B1 here?
Answer: binds
